# Measurements published in the supplement of paper PMC8728848.
# The list shows a part of the results.
# B1: Flo11 (Saccharomyces cerevisiae), P08640 (protein)
# chain: MQRPFLLAYLVLSLLFNSALGFPTALVPRGSSEGTSCNSIVNGCPNLDFNWHMDQQNIMQYTLDVTSVSWVQDNTYQITIHVKGKENIDLKYLWSLKIIGVTGPKGTVQLYGYNENTYLIDNPTDFTATFEVYATQDVNSCQVWMPNFQIQFEYLQGSAAQYASSWQWGTTSFDLSTGCNNYDNQGHSQTDFPGFYWNIDCDNNCGGTKSSTTTSSTSESSTTTSSTSESSTTTSSTSESSTTTSSTSESSTSSSTTAPATPTTTSCTKEKPTPPTTTSCTKEKPTPPHHDTTPCTKKKTTTSKTCTKKTTTPVPTPSSSTTESSSAPVPTPSSSTTESSSAPVTSSTTESSSAPVPTPSSSTTESSSAPVTSSTTESSSAPVTSSTTESSSAPVPTPSSSTTESSSAPVTSSTTESSSAPVTSSTTESSSAPVTSSTTESSSAPVTSSTTESSSAPVPTPSSSTTESSSAPVTSSTTESSSAPVPTPSSSTTESSSAPVTSSTTESSSAPVPTPSSSTTESSSAPAPTPSSSTTESSSAPVTSSTTESSSAPVPTPSSSTTESSSTPVTSSTTESSSAPVPTPSSSTTESSSAPVPTPSSSTTESSSAPAPTPSSSTTESSSAPVTSSTTESSSAPVPTPSSSTTESSSAPVPTPSSSTTESSSAPVPTPSSSTTESSSAPVTSSTTESSSAPVTSSTTESSSAPVPTPSSSTTESSSAPVPTPSSSTTESSSAPVPTPSSSTTESSSAPVTSSTTESSSAPVPTPSSSTTESSSAPVPTPSSSTTESSSAPVPTPSSSTTESSVAPVPTPSSSSNITSSAPSSTPFSSSTESSSVPVPTPSSSTTESSSAPVSSSTTESSVAPVPTPSSSSNITSSAPSSIPFSSTTESFSTGTTVTPSSSKYPGSQTETSVSSTTETTIVPTKTTTSVTTPSTTTITTTVCSTGTNSAGETTSGCSPKTVTTTVPTTTTTSVTTSSTTTITTTVCSTGTNSAGETTSGCSPKTITTTVPCSTSPSETASESTTTSPTTPVTTVVSTTVVTTEYSTSTKPGGEITTTFVTKNIPTTYLTTIAPTPSVTTVTNFTPTTITTTVCSTGTNSAGETTSGCSPKTVTTTVPCSTGTGEYTTEATTLVTTAVTTTVVTTESSTGTNSAGKTTTGYTTKSVPTTYVTTLAPSAPVTPATNAVPTTITTTECSAATNAAGETTSVCSAKTIVSSASAGENTAPSATTPVTTAIPTTVITTESSVGTNSAGETTTGYTTKSIPTTYITTLIPGSNGAKNYETVATATNPISIKTTSQLATTASASSVAPVVTSPSLTGPLQSASGSAVATYSVPSISSTYQGAANIKVLGNFMWLLLALPVVF
# Legend:
# Assay in all cases: glycan array binding signal (z-score within array); higher = stronger binding
# Settings in all cases: glycan notation: IUPAC condensed, linker removed
# [1] = molecular target: Neu5Ac(a2-6)Gal(b1-4)GlcNAc(b1-2)Man(a1-6)[Gal(b1-4)GlcNAc(b1-2)Man(a1-3)]Man(b1-4)GlcNAc(b1-4)GlcNAc
# In short: (§1)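 From the Consortium for Functional Glycomics database, 3228 arrays were curated, keeping only those whose protein sequence was available. Binding is given as a within-array Z-score averaged across arrays sharing a protein sequence and across linkers. Negative Z-scores can be read as non-binding.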
# [2] = molecular target: Neu5Ac(a2-6)Gal(b1-4)GlcNAc(b1-2)Man(a1-6)[GlcNAc(b1-2)Man(a1-3)]Man(b1-4)GlcNAc(b1-4)GlcNAc
# In short: as §1
# [3] = molecular target: Neu5Ac(a2-6)Gal(b1-4)GlcNAc(b1-2)Man(a1-6)[Man(a1-3)]Man(b1-4)GlcNAc(b1-4)GlcNAc
# In short: as §1
# [4] = molecular target: Neu5Ac(a2-6)Gal(b1-4)GlcNAc(b1-3)Gal(b1-3)GlcNAc
# In short: as §1
# [5] = molecular target: Neu5Ac(a2-6)Gal(b1-4)GlcNAc(b1-3)Gal(b1-4)GlcNAc
# In short: as §1
# [6] = molecular target: Neu5Ac(a2-6)Gal(b1-4)GlcNAc(b1-3)Gal(b1-4)GlcNAc(b1-3)Gal(b1-4)GlcNAc
# In short: as §1
# [7] = molecular target: Neu5Ac(a2-6)Gal(b1-4)GlcNAc(b1-3)Gal(b1-4)[Fuc(a1-3)]GlcNAc(b1-3)Gal(b1-4)[Fuc(a1-3)]GlcNAc
# In short: as §1
# [8] = molecular target: Neu5Ac(a2-6)Gal(b1-4)GlcNAc(b1-3)GalNAc
# In short: as §1
# [9] = molecular target: Neu5Ac(a2-6)Gal(b1-4)GlcNAc6S
# In short: as §1
# Neu5Ac(a2-6)GalNAc = molecular target: Neu5Ac(a2-6)GalNAc
# In short: as §1
# [10] = molecular target: Neu5Ac(a2-6)GalNAc(b1-4)GlcNAc
# In short: as §1
# [11] = molecular target: Neu5Ac(a2-6)GlcNAc(b1-4)GlcNAc
# In short: as §1
# [12] = molecular target: Neu5Ac(a2-6)GlcNAc(b1-4)GlcNAc(b1-4)GlcNAc
# In short: as §1
# Neu5Ac(a2-8)Neu5Ac = molecular target: Neu5Ac(a2-8)Neu5Ac
# In short: as §1
# [13] = molecular target: Neu5Ac(a2-8)Neu5Ac(a2-3)Gal(b1-3)GalNAc(b1-4)[Neu5Ac(a2-8)Neu5Ac(a2-3)]Gal(b1-4)Glc
# In short: as §1
# [14] = molecular target: Neu5Ac(a2-8)Neu5Ac(a2-3)Gal(b1-4)Glc
# In short: as §1
# [15] = molecular target: Neu5Ac(a2-8)Neu5Ac(a2-3)[Gal(b1-3)GalNAc(b1-4)]Gal(b1-4)Glc
# In short: as §1
# [16] = molecular target: Neu5Ac(a2-8)Neu5Ac(a2-3)[GalNAc(b1-4)]Gal(b1-4)Glc
# In short: as §1
# [17] = molecular target: Neu5Ac(a2-8)Neu5Ac(a2-8)Neu5Ac
# In short: as §1
# [18] = molecular target: Neu5Ac(a2-8)Neu5Ac(a2-8)Neu5Ac(a2-3)Gal(b1-4)Glc
# In short: as §1
# [19] = molecular target: Neu5Ac(a2-8)Neu5Ac(a2-8)Neu5Ac(a2-3)[GalNAc(b1-4)]Gal(b1-4)Glc
# In short: as §1
# [20] = molecular target: Neu5Ac(a2-8)Neu5Ac(a2-8)Neu5Ac(a2-8)Neu5Ac(a2-3)[GalNAc(b1-4)]Gal(b1-4)Glc
# In short: as §1
# [21] = molecular target: Neu5Ac(b2-6)Gal(b1-4)GlcNAc
# In short: as §1
# Neu5Ac(b2-6)GalNAc = molecular target: Neu5Ac(b2-6)GalNAc
# In short: as §1
# [22] = molecular target: Neu5Ac9Ac(a2-3)Gal(b1-3)GlcNAc
# In short: as §1
# [23] = molecular target: Neu5Ac9Ac(a2-3)Gal(b1-4)GlcNAc
# In short: as §1
# [24] = molecular target: Neu5Ac9Ac(a2-6)Gal(b1-4)GlcNAc
# In short: as §1
# [25] = molecular target: Neu5Gc(a2-3)Gal(b1-3)GlcNAc
# In short: as §1
# [26] = molecular target: Neu5Gc(a2-3)Gal(b1-3)[Fuc(a1-4)]GlcNAc
# In short: as §1
# Neu5Gc(a2-3)Gal(b1-4)Glc = molecular target: Neu5Gc(a2-3)Gal(b1-4)Glc
# In short: as §1
# [27] = molecular target: Neu5Gc(a2-3)Gal(b1-4)GlcNAc
# In short: as §1
# [28] = molecular target: Neu5Gc(a2-3)Gal(b1-4)[Fuc(a1-3)]GlcNAc
# In short: as §1
# [29] = molecular target: Neu5Gc(a2-6)Gal(b1-4)GlcNAc
# In short: as §1
# Neu5Gc(a2-6)GalNAc = molecular target: Neu5Gc(a2-6)GalNAc
# In short: as §1
# [30] = molecular target: Neu5Gc(b2-6)Gal(b1-4)GlcNAc
# In short: as §1
binder,measurement,setting,value
B1,glycan array binding signal (z-score),[1],-0.063
same,glycan array binding signal (z-score),[2],0.103
same,glycan array binding signal (z-score),[3],-1.03
same,glycan array binding signal (z-score),[4],-0.783
same,glycan array binding signal (z-score),[5],0.409
same,glycan array binding signal (z-score),[6],-0.252
same,glycan array binding signal (z-score),[7],0.359
same,glycan array binding signal (z-score),[8],-0.744
same,glycan array binding signal (z-score),[9],-0.192
same,glycan array binding signal (z-score),Neu5Ac(a2-6)GalNAc,-0.637
same,glycan array binding signal (z-score),[10],-0.788
same,glycan array binding signal (z-score),[11],0.085
same,glycan array binding signal (z-score),[12],1.91
same,glycan array binding signal (z-score),Neu5Ac(a2-8)Neu5Ac,0.369
same,glycan array binding signal (z-score),[13],0.341
same,glycan array binding signal (z-score),[14],-0.758
same,glycan array binding signal (z-score),[15],1.55
same,glycan array binding signal (z-score),[16],-0.55
same,glycan array binding signal (z-score),[17],-1.34
same,glycan array binding signal (z-score),[18],-1.22
same,glycan array binding signal (z-score),[19],-0.894
same,glycan array binding signal (z-score),[20],0.148
same,glycan array binding signal (z-score),[21],-0.789
same,glycan array binding signal (z-score),Neu5Ac(b2-6)GalNAc,-1.02
same,glycan array binding signal (z-score),[22],-1.22
same,glycan array binding signal (z-score),[23],-0.901
same,glycan array binding signal (z-score),[24],-0.778
same,glycan array binding signal (z-score),[25],-0.289
same,glycan array binding signal (z-score),[26],-1.28
same,glycan array binding signal (z-score),Neu5Gc(a2-3)Gal(b1-4)Glc,-0.51
same,glycan array binding signal (z-score),[27],-1.32
same,glycan array binding signal (z-score),[28],-1.06
same,glycan array binding signal (z-score),[29],-0.534
same,glycan array binding signal (z-score),Neu5Gc(a2-6)GalNAc,1.01
same,glycan array binding signal (z-score),[30],0.414

# Looked up one by one from the entries so far (2):
binder,measurement,setting,value
B1,glycan array binding signal (z-score),[7],0.359
same,glycan array binding signal (z-score),Neu5Ac(b2-6)GalNAc,-1.02
